Results of single-concentration screens

By UniProt entry, the sequences of proteins in these tests, tags left out.
UniProt P9WFT3, whole entry: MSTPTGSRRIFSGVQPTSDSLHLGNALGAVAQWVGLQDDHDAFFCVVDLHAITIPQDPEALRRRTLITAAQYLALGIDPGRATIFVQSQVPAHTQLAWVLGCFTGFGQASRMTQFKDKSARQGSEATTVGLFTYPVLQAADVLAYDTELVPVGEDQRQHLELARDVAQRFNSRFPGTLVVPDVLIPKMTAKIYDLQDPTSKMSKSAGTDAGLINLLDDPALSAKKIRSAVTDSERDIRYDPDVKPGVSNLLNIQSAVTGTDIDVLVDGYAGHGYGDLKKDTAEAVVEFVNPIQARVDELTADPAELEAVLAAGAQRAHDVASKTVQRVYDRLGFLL
UniProt I6X8D2, whole entry: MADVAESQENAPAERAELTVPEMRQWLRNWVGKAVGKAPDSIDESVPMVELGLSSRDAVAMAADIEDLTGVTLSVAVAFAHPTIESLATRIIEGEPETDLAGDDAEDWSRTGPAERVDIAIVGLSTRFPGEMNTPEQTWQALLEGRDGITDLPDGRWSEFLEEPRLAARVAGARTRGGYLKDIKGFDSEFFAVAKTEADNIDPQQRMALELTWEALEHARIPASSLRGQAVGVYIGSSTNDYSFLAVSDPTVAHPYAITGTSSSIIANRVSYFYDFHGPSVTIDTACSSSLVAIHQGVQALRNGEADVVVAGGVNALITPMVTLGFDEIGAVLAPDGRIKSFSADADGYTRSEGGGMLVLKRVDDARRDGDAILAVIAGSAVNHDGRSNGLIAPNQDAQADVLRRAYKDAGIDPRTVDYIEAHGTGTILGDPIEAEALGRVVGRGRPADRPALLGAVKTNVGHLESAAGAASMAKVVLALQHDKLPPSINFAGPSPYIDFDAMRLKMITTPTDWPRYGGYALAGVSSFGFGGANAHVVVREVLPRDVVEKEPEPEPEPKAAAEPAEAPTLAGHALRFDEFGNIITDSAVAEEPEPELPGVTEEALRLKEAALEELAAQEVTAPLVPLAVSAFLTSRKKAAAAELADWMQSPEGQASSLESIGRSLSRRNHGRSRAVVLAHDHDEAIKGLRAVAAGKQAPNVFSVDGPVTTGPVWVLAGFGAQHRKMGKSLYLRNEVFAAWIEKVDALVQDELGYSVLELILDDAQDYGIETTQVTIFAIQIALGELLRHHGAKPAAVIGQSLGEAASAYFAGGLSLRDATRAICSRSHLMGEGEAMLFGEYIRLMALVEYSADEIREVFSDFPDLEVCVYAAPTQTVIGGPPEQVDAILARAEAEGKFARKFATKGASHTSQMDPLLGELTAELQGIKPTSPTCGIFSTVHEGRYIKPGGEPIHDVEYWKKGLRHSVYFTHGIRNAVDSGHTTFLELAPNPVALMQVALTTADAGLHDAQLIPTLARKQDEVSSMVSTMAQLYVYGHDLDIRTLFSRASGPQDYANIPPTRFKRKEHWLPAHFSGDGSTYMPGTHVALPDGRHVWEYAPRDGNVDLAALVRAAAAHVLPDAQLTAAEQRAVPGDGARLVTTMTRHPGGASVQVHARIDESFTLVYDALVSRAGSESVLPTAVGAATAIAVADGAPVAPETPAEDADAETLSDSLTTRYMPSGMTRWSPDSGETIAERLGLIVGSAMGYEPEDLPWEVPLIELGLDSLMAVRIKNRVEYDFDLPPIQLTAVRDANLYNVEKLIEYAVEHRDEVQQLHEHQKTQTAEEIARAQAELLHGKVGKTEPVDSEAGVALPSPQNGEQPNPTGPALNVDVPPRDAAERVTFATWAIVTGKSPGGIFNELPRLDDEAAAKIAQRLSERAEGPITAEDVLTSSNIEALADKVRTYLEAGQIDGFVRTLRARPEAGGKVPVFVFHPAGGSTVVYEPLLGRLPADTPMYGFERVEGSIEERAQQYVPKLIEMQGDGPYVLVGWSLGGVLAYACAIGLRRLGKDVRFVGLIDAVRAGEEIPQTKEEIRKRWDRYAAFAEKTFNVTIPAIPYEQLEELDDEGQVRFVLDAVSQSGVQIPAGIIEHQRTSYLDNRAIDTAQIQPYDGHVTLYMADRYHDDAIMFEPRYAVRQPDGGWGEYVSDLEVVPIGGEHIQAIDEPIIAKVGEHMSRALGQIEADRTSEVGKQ

MtTrpRS: 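Tryptophan-tRNA ligase, Mycobacterium tuberculosis (UniProt P9WFT3). Enzyme assay of tryptophanyl-tRNA synthetase; the read-out is not stated. Concentration: 10 µM. Higher most likely means stronger inhibition; the record gives no direction and few retests gave an IC50. About 65,000 compounds were tested under these conditions; 0.098% (about 64) showed 50% or more at least once.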
Pks13 thioesterase: 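Polyketide synthase Pks13, Mycobacterium tuberculosis (UniProt I6X8D2). Enzyme assay of the thioesterase domain of polyketide synthase 13; the read-out is not stated. Concentration: 30 µM. The record gives no direction; the compounds picked for IC50 retests had high values, so higher reads as stronger inhibition. Of about 67,000 compounds tested this way, about 300 (0.46%) reached 50% or more in at least one test.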

The filed quantity is “Percent Effect” (%). The controls that fix the scale are not given in the record; negative values are as filed. This is an unselected part of the compounds tested. A dash means the value is not listed here; it may have been measured.

SMILES	MtTrpRS	Pks13 thioesterase
Cc1ccc(C(=O)N(CCC#N)Cc2ccccn2)cc1C	2.679	-46.27
Cc1nc(C(NC(=O)CN(C)C(C)C)c2ccccc2F)no1 (centres undefined)	-4.852	-3.571
Cc1nc(C)n(CC2CCCN2CCCc2nc3ccccc3o2)n1 (centres undefined)	-7.182	7.69
Cc1ccc2c(c1)c(Sc1ccccc1)c(CC(=O)O)n2C	-1.232	1.651
COCC(=O)Nc1ccccc1-c1ccc(=O)n(C)n1	-5.243	-8.535
C=C(C)COc1cccc(C(=O)N2CCC3(CCOCC3)CC2)c1	10.29	12.9
COC(=O)[C@@H]1CN(C(=O)c2cscn2)C[C@H]1c1ccc(OC)cc1	12.55	-1.378
CCNC(=O)[C@@H]1C[C@@H](N)CN1Cc1ccc2cccc(Cl)c2n1	5.319	-0.02891
CN(C[C@H]1CN2CC[C@H]1C[C@@H]2CNC(=O)c1ccco1)c1ccccc1	-2.807	-27.67
Cc1cccc(N2CCC3(CCCN3Cc3cn(C)nc3C)CC2)n1	1.487	-20.93
Cc1nnc(CN2C[C@H](NC(=O)CC3CCCC3)[C@@H](C3CC3)C2)s1	-0.9518	2.09
CN1C[C@@H](C(=O)N2CCOCC2)[C@@]2(CCc3ccccc3C(=O)N2)C1	4.581	1.661
COCCc1nc(-c2cnn3c(C)cc(C)nc23)no1	6.684	-16.86
CCN1CCCC(C)(C(=O)NCc2nncn2CCc2ccccc2)C1 (centres undefined)	5.58	-15.52
CS(=O)(=O)NCCNCc1ccc(Br)s1	-5.333	-26.82
CCS(=O)(=O)N1CCC2(CN(C(=O)c3cn(C)cn3)C2)C1	14.46	18.19
COCC1COCCC12CCN(C(=O)CCc1ccccc1)CC2 (centres undefined)	-3.189	-7.257
CCOc1ccc(Cl)c(C(=O)N2CCN(c3cnccn3)CC2)n1	1.679	-5.704
CN1CC2(CCN(C(=O)c3cn4cccnc4n3)CC2)CC1=O	-0.9517	14.48
O=S(=O)(CC1CCCCC1)NCc1ccc(O)nc1	6.416	-
NC(=O)CN1C(=O)CO[C@H]2CN(Cc3ccc(Cl)cc3)C[C@H]21	0.839	15.36
CCOc1ccc(C(=O)Nc2c(C)nc3scc(C)n3c2=O)cc1	-4.811	6.433
CC(C)Cn1c2c(ccc1=O)CC(N)CC2 (centres undefined)	-5.093	-26.34
CCOC(C)c1noc(CN2CCCNCC2)n1 (centres undefined)	-7.818	-13.31
CC(C)CC(c1nc(-c2cnn(C)c2)no1)N1CCCCC1=O (centres undefined)	-3.488	-15.82
Cc1nonc1C1CCCN1Cc1ccc(C(=O)Nc2nccs2)cc1 (centres undefined)	1.255	-9.311
Cc1nc(O)cc(CN2C[C@H](NC(=O)C3CCC3)[C@@H](C3CC3)C2)n1	0.9046	-7.128
CC(C)(C)c1nnc(CN2CCN(S(C)(=O)=O)CC2)o1	-2.864	8.578
COCCS(=O)(=O)NC(=O)c1nnn(-c2ccc(F)cc2)c1C1CC1	4.447	-1.755
CC(NC(=O)CCc1cccs1)c1nnc2n1CCC2 (centres undefined)	-0.2916	-9.199
CCN(CC1CCOC1)C(=O)c1ccn(-c2cc(C)ccc2OC)n1 (centres undefined)	-4.717	4.636
Cc1nc2c(N3CCC(O)(Cn4ccnc4)CC3)ncnc2o1	1.547	-24.37
CCc1nccn1C1CCCN(C(=O)CCc2nc(C(C)C)no2)C1 (centres undefined)	-3.645	-8.2
c1cnc(-c2nn3c(CN4CCCCCC4)nnc3s2)cn1	6.736	-3.09
CN(Cc1cc(C2CC2)on1)C(=O)CN1CC(c2ccccc2)CC1=O (centres undefined)	1.365	-14.74
Cn1c(-c2ccccc2Cl)nc2cc(C(=O)NC(CO)CO)cnc21	1.671	-32.02
COc1ccc(C[C@H]2CN(C(=O)c3ccc(C)nc3)CC[C@@H]2OC)cc1	-5.669	-28.33
COCC(=O)NCCn1nc(-c2cc(C)oc2C)ccc1=O	-4.525	-8.747
COc1ccc(C2CCCN2c2ccnc(C)c2Cl)c(OC)c1 (centres undefined)	4.338	-17.96
CCN(CC1CCOC1)C(=O)Nc1ccc(N2CCOCC2)nc1 (centres undefined)	17.65	-41.23
CC(=O)Nc1ccc(CN2CCCC(c3cc4ncccc4[nH]3)C2)cc1 (centres undefined)	-1.172	9.438
O=C(c1csc(I)c1)N1CCc2c(ncn2C2CC2)C1	1.713	-7.47
CN(Cc1cc(F)ccc1F)CC(C)(CO)CO	-3.625	-32.75
COc1ccc(S(=O)(=O)C(F)(F)F)cc1NC(=O)CSCC#N	-3.816	-30.11
O=C(O)[C@H]1OCC(=O)N(Cc2cccc(F)c2)[C@@H]1c1ccc(Cl)cc1	-0.2114	6.18
Cc1cc(CNCC2CCCN(C(=O)OC(C)(C)C)C2)no1 (centres undefined)	-0.5708	1.768
CCN(Cc1nonc1C)C(=O)c1ccc(Br)o1	-2.874	-10.87
CCCN1CCC(c2nc3ccc(-c4cccc(OC)c4)cn3n2)CC1	-	-16.36
CCN(CC)S(=O)(=O)N1CCC(c2c(C(N)=O)sc3ccccc23)C1 (centres undefined)	3.453	-26.3
CCOc1ccc(N2CCCN=C2NC(=O)c2ccc(OC)cc2)cc1	-4.404	-3.033
O=C(NCc1ccccc1CN1CCC(O)CC1)Nc1ccncc1	1.161	-19.84
Cn1cncc1-c1nnc([C@H]2CCN(Cc3cccnc3)C2)o1	-5.721	-25.97
Cn1cnc2cc(CCC(=O)Nc3nc[nH]n3)ccc21	1.375	-10.36
Cc1ccc(Cl)cc1N1CCN(CC(=O)NC(C)c2ccco2)CC1 (centres undefined)	0.5735	6.431
CCN1CC2(CC1=O)CN(C(=O)N(C)C)CCN(S(C)(=O)=O)C2 (centres undefined)	-0.2907	-24.03
OC(COCc1ccccc1)CSc1nnc(C2CC2)n1C1CC1 (centres undefined)	-0.516	-5.01
CCc1nc(CN2CCCC(NCc3nnc(C4CC4)n3C)C2)no1 (centres undefined)	-2.132	-11.55
O=S(=O)(Cc1c(F)cccc1Cl)Cc1nnnn1C1CC1	3.099	-8.033
CC(C)(C)c1csc(C2CCCCN2C(=O)CCn2cncn2)n1 (centres undefined)	4.924	-29.65
Cc1cc(-c2ccncc2)ccc1OCC(N)=O	-3.722	-28.24
COCCN1CCC2(CC1)CC(OCC1CC1)c1ccc(C)cc12 (centres undefined)	10.44	-12.83
CCOc1ccccc1-c1noc(CN2CCN(CCOC)CC2)n1	0.08136	44.53
CC(C)OCCN1CCc2cncnc2C1	2.768	4.723
Cc1cnn(CCNCc2nnc(C3CC3)o2)c1	2.274	-9.008
O=C1O[C@@H]2CN(Cc3cccc(F)c3)C[C@@H]2N1CCCN1CCOCC1	6.217	-17.29
Cc1[nH]ccc1C(=O)NCc1ncoc1C	-4.644	-30.47
CC(Cc1ccco1)NC(=O)Nc1ccc(N(C)C)nc1 (centres undefined)	-7.384	6.675
Cc1ccc(S(=O)(=O)N2CCC(Oc3ccccn3)CC2)c(C)c1	2.508	-35.48
COc1cc(C)c(NC(=O)CCn2cccc2)cc1OC	3.767	-9.737
Cc1ccc(OCCN(C)S(=O)(=O)c2cnn(C)c2)cc1	-2.007	0.2255

Some entries from above, unchanged:

* COCCN1CCC2(CC1)CC(OCC1CC1)c1ccc(C)cc12 (centres undefined) | MtTrpRS: 10.44%; Pks13 thioesterase: -12.83%
* Cc1nc(C)n(CC2CCCN2CCCc2nc3ccccc3o2)n1 (centres undefined) | MtTrpRS: -7.182%; Pks13 thioesterase: 7.69%
* c1cnc(-c2nn3c(CN4CCCCCC4)nnc3s2)cn1 | MtTrpRS: 6.736%; Pks13 thioesterase: -3.09%
* C=C(C)COc1cccc(C(=O)N2CCC3(CCOCC3)CC2)c1 | MtTrpRS: 10.29%; Pks13 thioesterase: 12.9%

The values are deposited in ChEMBL (CHEMBL3988442, “University of Dundee, Small-Polar-MMV Screening Library” (2021)).